Experimental findings from paper doi:10.1101/134007 are described below.

Results are given in words; binding and its absence hold for the method and conditions named. Binding seen in cells or lysates may run through a third protein. Binding can be weak; no strength is given. Tags and fused reporters may be left off the sequences shown.

This experiment has as its target T1, Human Myc-DHHC6 (WT) (human) (UniProt Q9H6R6).
T1 sequence: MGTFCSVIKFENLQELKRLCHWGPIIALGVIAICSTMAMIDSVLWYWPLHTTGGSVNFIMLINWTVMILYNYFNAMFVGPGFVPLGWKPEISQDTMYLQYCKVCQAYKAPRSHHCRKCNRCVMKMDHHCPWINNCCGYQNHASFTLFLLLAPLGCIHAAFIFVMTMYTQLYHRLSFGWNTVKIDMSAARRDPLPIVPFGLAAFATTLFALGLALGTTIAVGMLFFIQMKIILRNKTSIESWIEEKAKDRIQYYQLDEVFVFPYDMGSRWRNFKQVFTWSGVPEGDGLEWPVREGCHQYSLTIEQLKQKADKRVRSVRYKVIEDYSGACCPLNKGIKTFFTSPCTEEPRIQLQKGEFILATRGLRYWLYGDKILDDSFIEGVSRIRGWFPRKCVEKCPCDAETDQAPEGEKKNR
Put plainly: co-IP.

For Human FLAG-DHHC16 (enzyme), the binding entry was “binds”.
